Earlier results on 1 compound are cited in PMC4160570, “Effects of proarrhythmic drugs on relaxation time and beating pattern in rat engineered heart tissue” (Basic Research in Cardiology, 2014).

The test system of one data set is mouse. The note with it: in vivo; cited from earlier work.
In the next data set the test system is rat. Particulars: in vivo; cited from earlier work.

For `COC(=O)C1=C(C)NC(C)=C(C(=O)OC)C1c1ccccc1[N+](=O)[O-]` [Nifedipine], the LD50 – broadly, the dose at which mortality reaches 50% – in the data set on mouse is on record as 1.022 mg∙kg^-1 (rat, p. o.) 185 mg∙kg^-1 (mouse, i. p.); in the data set with rat, 1.022 mg∙kg^-1 (rat, p. o.) 185 mg∙kg^-1 (mouse, i. p.).
